{"source": "patent US9238055B2", "about": "“Peptide bone forming peptide 4 for promoting osteogenesis or vascularization and use thereof” (Chonnam National University Hospital, priority 2011, dated 2016)", "key": {"[1]": {"system": "mesenchymal stem cells isolated from Balb/c mouse bone marrow stromal cells", "assay": "Osteoblastic differentiation by Alizarin red staining (mineralization)", "type": "cell-based", "conditions": "FIG. 2"}, "calcium": {"system": "calcium", "assay": "Calcium level during osteoblastic differentiation (QuantiChrom Calcium Assay Kit)", "type": "cell-based, mouse", "conditions": "BFP 4 at 0.01 μg/mL and 0.1 μg/mL; FIG. 4B"}, "[2]": {"system": "runx2, osteocalcin and alkaline phosphatase genes", "assay": "Osteoblast-specific gene expression (RT-PCR, electrophoresis)", "type": "cell-based, mouse", "conditions": "cells treated with the peptide; FIG. 5"}, "CD44 and CD51 [3]": {"system": "CD44 and CD51", "assay": "Cell surface marker expression during osteoblastic differentiation by FACS", "type": "cell-based, mouse", "conditions": "FIG. 6"}, "CD44 and CD51 [4]": {"system": "CD44 and CD51", "assay": "Cell surface marker expression by fluorescence microscope", "type": "cell-based, mouse", "conditions": "osteogenic differentiation medium in the presence of BFP 4; FIG. 7"}, "mice [5]": {"system": "mice", "assay": "In vivo osteogenesis: transplantation of treated cells with collagen scaffold, X-ray", "design": "species or system mouse", "conditions": "treated cells transplanted into the back with collagen"}, "VEGF": {"system": "VEGF", "assay": "VEGF expression (electrophoresis, anti-VEGF antibody)", "type": "cell-based", "conditions": "cells treated with the peptide; compared with BMP7; FIG. 9"}, "mice [6]": {"system": "mice", "assay": "In vivo vascularization in transplanted Matrigel", "design": "species or system mouse", "conditions": "treated cells in Matrigel transplanted into the back, 8 weeks, compared with BMP7, FIG. 10"}}, "note": "Part of at least one peptide drawing is inferred or uncertain, most often the ends. Where no end group is shown, it is not given here.", "data": [{"sequence": "FFKATEVHFRSIRST [BFP 4, Phe-Phe-Lys-Ala-Thr-Glu-Val-His-Phe-Arg-Ser-Ile-Arg-Ser-Thr]", "values": [{"measurement": "Alizarin red staining intensity compared with BMP7", "setting": "[1]; osteogenic differentiation medium, compared with BMP7", "value": "more intensive colors than did BMP7"}, {"measurement": "BFP 4 concentration giving the most intensive Alizarin red staining", "setting": "[1]; tested at 0.001, 0.01, 0.05, 0.1 μg/mL in osteogenic differentiation medium, 2 days", "value": 0.01, "unit": "µg/mL"}, {"measurement": "Concentration of calcium", "setting": "calcium", "value": "significantly increased"}, {"measurement": "Expression of osteoblast-specific genes (runx2, osteocalcin, ALP)", "setting": "[2]", "value": "induced expression of the osteoblast-specific genes"}, {"measurement": "CD44 expression (FACS)", "setting": "CD44 and CD51 [3]; BFP 4 added to osteogenic differentiation medium", "value": "expressed at a high level"}, {"measurement": "CD51 expression (FACS)", "setting": "CD44 and CD51 [3]; in the presence of BFP 4 during osteoblastic differentiation", "value": "expressed at higher levels"}, {"measurement": "BFP 4 concentration at peak CD44 expression level (FACS)", "setting": "CD44 and CD51 [3]; osteogenic differentiation medium", "value": 0.1, "unit": "µg/mL"}, {"measurement": "CD44 and CD51 expression (fluorescence microscope)", "setting": "CD44 and CD51 [4]", "value": "Higher expression levels of CD44 and CD51"}, {"measurement": "Bone formation by X-ray, 4 weeks after transplantation", "setting": "mice [5]; 4 weeks, FIG. 8", "value": "new bones were formed"}, {"measurement": "Bone formation by X-ray, 8 weeks after transplantation, compared with BMP7", "setting": "mice [5]; 8 weeks, compared with BMP7, FIG. 8", "value": "significantly higher extent of bone formation"}, {"measurement": "VEGF expression", "setting": "VEGF", "value": "to a higher level than by BMP7"}, {"measurement": "Formation of new blood vessels in Matrigel", "setting": "mice [6]", "value": "more vascularization was induced by BFP4 than by BMP7"}]}]}
